The assay deals with cynomolgus OX40 (cynomolgus (result sentence); rhesus (method)). The assay can be described thus: ELISA, OX40 antigen captured on Ni-NTA plate, antibody at 1 ug/mL. (An ELISA detects its analyte on a solid surface through an enzyme-linked reagent.)

Results are given in words; binding and its absence hold for the method and conditions named. A result given as binding can be weak or reduced; the word gives no strength.

B1: 2B4 wild type anti-OX40 antibody (antibody, V domains shown)
VH: QMQLVQSGAEVKKPGASVKVSCKTSGYTFTGYYLHWVRQAPGQGLEWMGIINPSDGSTRNAQKFEGRVTMTRDTSTSTVYMELSSLSPEDTAVYYCARDLEYIGSGSLSWFDPWGQGTLVTVSS
VL: QPVLTQPASVSGSPGQSITISCTGTSSDLGAYDYVSWYQQQPGQAPKLIIYDVNNRPSGVSNRFSGSKSGNTASLTISGLQAEDEADYYCSSYTSSSTLVYVFGTGTKVTVL
notes: Fully human antibody of an IgG class, captured or detected through human Fc; the isotype control used was IgG1; also called 2B4 (WT); wild type 2B4
For the molecule B1, the binding result is “binds”.

Values taken from US20190169302A1 (SORRENTO THERAPEUTICS, published 2019).
